This is one part of the list.
Legend:
Assay in all cases: log2 fold change, soluble protein after heating vs DMSO (PISA); higher = thermal stabilisation; K562 lysate, 10 uM; active = over 0.2 and 3.5 SD of the protein, either way, in both replicates (recomputed)
[1] = compound: C1=CC=C(C=C1)[C@H](COC2=CC3=C(C=C2)NC(=O)N3)NC(=O)C4=CC=CN(C4=O)CC5=CC(=C(C=C5)F)F
How it was run: (§1)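 The values are log-two fold changes in thermal stability compared with solvent controls and come from duplicates. They were obtained by TMTpro 16plex LC-MS/MS, with channel sums equalised, on the supernatant after 21,000xg for 90 min. That supernatant came from crude K562 extract at 1 mg/mL protein treated with 10 μM compound for 30 min, heated for 3 min across 48°C-58°C, pooled and brought to 0.5% NP-40 at 4°C.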

Amino acid sequences for entries named in this document (tags omitted). A change or cut given only in a name is not applied to a line headed by its entry.
UniProt P11166: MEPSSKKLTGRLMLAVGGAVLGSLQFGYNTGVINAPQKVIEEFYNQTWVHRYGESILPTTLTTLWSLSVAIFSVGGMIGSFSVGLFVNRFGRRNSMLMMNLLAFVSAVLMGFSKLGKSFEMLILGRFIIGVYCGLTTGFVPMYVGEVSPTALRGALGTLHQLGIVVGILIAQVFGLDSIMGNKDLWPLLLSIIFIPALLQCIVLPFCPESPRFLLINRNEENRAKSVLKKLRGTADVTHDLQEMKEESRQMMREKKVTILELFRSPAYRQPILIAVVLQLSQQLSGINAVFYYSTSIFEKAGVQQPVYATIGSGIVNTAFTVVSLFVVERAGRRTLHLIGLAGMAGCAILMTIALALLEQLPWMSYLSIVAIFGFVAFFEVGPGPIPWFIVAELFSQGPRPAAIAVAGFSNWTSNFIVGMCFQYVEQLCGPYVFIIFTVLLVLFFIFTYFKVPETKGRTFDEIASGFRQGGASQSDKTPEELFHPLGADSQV
UniProt O14975, whole entry, looked up: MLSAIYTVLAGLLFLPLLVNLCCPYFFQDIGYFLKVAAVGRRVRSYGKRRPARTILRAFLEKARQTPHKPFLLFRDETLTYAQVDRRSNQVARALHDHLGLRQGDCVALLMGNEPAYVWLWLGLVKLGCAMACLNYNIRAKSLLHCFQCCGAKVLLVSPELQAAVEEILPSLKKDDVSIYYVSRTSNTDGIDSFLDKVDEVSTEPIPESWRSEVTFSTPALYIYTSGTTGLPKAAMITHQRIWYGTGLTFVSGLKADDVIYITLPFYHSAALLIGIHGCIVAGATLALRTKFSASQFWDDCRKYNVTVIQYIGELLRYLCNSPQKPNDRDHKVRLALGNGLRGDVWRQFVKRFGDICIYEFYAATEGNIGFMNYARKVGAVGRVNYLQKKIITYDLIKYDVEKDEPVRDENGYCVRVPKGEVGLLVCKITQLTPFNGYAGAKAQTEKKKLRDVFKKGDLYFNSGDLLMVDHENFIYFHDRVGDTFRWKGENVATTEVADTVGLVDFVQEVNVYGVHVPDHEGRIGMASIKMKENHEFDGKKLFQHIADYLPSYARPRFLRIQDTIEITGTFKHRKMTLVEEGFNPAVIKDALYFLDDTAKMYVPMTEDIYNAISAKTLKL
UniProt Q96K37: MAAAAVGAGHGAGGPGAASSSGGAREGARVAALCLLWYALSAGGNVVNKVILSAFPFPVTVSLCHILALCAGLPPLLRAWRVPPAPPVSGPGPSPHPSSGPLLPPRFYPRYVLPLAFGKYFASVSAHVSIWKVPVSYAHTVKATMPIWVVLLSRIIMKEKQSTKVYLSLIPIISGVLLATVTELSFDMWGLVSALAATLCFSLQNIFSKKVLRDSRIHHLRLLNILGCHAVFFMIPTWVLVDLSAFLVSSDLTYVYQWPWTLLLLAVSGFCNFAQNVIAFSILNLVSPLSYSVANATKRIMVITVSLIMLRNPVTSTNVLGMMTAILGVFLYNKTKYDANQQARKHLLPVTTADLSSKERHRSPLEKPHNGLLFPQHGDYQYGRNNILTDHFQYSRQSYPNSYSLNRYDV
UniProt Q9UPY5: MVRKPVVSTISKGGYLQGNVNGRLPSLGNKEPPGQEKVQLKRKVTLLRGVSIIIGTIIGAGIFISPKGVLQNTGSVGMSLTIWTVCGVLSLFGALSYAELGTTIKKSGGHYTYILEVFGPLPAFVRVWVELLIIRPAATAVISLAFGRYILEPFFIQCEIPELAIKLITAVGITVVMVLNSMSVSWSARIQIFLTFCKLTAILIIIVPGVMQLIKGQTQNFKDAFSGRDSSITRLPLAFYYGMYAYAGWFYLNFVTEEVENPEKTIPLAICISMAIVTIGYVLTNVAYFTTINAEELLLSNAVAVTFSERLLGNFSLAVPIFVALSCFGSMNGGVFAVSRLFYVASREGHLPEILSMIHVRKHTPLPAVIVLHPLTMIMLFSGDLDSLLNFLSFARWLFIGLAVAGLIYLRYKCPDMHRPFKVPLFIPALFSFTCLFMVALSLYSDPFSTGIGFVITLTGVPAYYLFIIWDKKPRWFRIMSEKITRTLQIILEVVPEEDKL
UniProt L0R6Q1: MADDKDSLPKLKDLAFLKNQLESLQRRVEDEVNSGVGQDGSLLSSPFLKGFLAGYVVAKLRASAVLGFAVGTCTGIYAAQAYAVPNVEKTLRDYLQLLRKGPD
UniProt P52569: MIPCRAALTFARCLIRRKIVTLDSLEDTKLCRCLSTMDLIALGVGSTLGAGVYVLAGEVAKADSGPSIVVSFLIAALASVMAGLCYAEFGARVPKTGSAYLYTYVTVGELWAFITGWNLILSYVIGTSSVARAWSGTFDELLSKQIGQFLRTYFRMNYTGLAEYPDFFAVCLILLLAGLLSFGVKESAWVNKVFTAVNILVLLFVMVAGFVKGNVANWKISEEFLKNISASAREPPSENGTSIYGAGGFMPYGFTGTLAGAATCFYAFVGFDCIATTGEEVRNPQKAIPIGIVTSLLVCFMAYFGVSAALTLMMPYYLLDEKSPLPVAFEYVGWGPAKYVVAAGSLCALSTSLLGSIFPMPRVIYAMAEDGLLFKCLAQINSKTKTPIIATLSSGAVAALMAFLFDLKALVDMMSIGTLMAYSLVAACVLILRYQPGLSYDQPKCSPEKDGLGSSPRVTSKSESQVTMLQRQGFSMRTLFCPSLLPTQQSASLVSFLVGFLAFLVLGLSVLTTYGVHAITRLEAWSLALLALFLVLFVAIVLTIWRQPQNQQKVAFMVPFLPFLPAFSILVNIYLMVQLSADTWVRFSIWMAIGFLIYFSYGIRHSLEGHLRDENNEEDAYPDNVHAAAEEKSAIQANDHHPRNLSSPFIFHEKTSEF
UniProt P78381: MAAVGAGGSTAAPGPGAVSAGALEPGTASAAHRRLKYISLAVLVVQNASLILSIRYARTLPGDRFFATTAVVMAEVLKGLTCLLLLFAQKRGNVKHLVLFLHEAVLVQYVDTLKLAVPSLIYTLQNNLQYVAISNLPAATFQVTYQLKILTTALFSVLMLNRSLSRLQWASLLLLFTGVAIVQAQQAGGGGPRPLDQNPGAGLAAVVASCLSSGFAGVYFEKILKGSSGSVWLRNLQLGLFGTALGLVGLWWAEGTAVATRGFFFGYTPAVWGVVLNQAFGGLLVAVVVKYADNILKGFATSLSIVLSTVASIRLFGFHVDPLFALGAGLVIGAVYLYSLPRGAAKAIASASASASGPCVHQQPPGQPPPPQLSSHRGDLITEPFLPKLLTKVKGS
UniProt P31641: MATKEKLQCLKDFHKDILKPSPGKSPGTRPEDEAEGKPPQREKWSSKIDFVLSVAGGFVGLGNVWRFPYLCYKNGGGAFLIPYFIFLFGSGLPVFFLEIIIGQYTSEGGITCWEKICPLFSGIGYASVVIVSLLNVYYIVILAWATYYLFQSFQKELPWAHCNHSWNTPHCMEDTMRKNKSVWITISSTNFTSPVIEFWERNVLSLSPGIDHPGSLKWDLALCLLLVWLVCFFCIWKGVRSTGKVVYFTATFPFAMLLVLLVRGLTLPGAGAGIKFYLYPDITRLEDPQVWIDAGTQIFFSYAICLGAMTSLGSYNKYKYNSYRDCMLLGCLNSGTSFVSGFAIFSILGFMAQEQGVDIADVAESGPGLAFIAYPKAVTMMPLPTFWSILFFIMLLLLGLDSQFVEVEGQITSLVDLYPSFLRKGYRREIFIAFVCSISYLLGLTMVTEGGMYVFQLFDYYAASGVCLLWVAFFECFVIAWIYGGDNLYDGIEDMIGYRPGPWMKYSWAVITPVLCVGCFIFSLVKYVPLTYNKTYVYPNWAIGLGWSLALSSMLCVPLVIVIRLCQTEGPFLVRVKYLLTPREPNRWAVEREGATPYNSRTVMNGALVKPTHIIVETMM
UniProt Q9H1N7: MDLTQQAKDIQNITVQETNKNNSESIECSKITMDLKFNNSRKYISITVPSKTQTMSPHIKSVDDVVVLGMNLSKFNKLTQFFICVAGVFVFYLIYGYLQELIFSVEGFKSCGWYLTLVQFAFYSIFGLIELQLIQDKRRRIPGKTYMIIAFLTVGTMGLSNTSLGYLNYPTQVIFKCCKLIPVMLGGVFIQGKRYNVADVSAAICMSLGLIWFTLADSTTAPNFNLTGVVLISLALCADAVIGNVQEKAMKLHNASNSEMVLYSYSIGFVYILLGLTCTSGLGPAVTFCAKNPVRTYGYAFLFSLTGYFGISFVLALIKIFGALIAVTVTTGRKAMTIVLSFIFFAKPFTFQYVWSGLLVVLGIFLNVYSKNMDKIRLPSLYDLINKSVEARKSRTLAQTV
UniProt Q9BXS9: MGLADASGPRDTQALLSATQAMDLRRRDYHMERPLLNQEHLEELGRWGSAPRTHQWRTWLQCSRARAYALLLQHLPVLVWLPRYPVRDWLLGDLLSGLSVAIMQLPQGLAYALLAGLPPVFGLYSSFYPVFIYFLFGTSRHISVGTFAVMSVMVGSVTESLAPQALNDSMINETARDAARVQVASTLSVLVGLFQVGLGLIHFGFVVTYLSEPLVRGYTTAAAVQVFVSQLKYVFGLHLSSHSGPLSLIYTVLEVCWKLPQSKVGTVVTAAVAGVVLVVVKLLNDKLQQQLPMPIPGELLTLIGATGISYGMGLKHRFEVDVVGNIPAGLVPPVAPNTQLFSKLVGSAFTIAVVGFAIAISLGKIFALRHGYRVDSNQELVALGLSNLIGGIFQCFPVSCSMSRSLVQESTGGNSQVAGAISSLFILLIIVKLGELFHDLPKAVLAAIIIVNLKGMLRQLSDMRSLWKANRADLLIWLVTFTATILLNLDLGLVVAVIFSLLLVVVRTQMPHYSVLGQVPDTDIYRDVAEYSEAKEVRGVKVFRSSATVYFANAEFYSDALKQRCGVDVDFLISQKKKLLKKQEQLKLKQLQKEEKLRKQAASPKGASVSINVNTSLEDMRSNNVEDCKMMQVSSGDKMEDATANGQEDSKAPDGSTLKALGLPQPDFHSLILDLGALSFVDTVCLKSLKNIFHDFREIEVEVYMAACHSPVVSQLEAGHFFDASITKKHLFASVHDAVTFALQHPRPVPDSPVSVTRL
UniProt Q5SVS4: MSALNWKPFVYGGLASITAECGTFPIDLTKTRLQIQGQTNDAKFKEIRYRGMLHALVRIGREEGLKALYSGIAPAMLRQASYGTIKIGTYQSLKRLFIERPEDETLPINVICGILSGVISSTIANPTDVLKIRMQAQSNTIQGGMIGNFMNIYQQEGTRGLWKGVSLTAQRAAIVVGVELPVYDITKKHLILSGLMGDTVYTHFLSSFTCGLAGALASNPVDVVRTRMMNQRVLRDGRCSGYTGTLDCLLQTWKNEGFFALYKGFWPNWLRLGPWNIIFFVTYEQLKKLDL
UniProt P12235: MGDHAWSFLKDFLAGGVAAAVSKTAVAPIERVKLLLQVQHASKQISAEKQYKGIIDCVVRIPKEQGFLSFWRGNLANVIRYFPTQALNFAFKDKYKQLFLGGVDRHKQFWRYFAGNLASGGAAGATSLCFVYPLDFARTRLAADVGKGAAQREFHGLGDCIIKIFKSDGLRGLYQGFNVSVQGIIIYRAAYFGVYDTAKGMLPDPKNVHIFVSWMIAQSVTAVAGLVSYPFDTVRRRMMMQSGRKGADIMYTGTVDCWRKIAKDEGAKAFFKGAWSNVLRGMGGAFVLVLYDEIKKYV
UniProt Q99808: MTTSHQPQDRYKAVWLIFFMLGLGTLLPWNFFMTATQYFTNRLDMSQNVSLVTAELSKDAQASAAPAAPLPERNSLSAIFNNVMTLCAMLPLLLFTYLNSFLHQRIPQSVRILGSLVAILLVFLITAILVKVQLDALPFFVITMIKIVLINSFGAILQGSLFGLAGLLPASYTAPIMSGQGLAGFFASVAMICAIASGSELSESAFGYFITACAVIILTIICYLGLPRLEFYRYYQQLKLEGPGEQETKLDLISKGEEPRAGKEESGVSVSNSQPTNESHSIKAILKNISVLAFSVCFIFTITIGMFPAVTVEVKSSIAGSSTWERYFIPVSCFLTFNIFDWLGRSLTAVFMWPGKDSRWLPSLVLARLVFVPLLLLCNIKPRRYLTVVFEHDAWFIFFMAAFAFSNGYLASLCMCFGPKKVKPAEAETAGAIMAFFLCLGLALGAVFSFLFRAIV
UniProt Q9H2D1: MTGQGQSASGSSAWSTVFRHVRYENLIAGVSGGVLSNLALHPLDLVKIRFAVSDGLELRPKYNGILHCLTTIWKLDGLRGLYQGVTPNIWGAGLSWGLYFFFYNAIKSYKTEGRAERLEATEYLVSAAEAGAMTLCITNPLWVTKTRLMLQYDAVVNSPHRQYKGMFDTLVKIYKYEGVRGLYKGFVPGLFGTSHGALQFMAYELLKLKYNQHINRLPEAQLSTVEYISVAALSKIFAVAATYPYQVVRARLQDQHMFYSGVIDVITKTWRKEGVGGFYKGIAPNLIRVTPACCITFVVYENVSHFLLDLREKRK

[2] = compound: CC1=C(SC2=C1C(=N[C@H](C3=NN=C(N32)C)CC(=O)N)C4=CC=C(C=C4)Cl)C
How it was run: as §1

[3] = compound: CC1=C2C(=CC=C1)N=C(N(C2=O)C3=CC=CC=C3C)CN4C=NC5=C(N=CN=C54)N
How it was run: as §1

[4] = compound: Cc1sc2c(c1C)C(c1ccc(Cl)cc1)=N[C@@H](CC(=O)OC(C)(C)C)c1nnc(C)n1-2
How it was run: as §1

[5] = compound: c1ccc([C@@H]2C[C@H]2NC2CCNCC2)cc1
How it was run: as §1

Measured: log2 fold change

SLC2A1 (UniProt P11166)
inactive: [1] -0.009 | [2] 0.009 | [3] 0.013 | [4] 0.002 | [5] 0.047

SLC27A2 (UniProt O14975)
inactive: [1] 0.198 | [2] -0.064 | [3] -0.043 | [4] -0.063 | [5] -0.05

SLC35E1 (UniProt Q96K37)
inactive: [1] -0.006 | [2] -0.157 | [3] -0.015 | [4] -0.054 | [5] 0.027

SLC39A14 (UniProt Q15043)
inactive: [1] 0.037 | [2] -0.054 | [3] 0.005 | [4] -0.02 | [5] -0.002

SLC29A2 (UniProt Q14542)
inactive: [1] 0.106 | [2] 0.001 | [3] 0.044 | [4] -0.116 | [5] -0.233

SLC7A11 (UniProt Q9UPY5)
inactive: [1] 0.034 | [2] 0.048 | [3] 0.042 | [4] -0.056 | [5] -0.029

SLC35A4 (UniProt L0R6Q1)
inactive: [1] -0.042 | [2] -0.01 | [3] 0.063 | [4] -0.049 | [5] -0.084

SLC7A2 isoform 3 (UniProt P52569)
inactive: [1] -0.024 | [2] 0 | [3] -0.162 | [4] -0.224 | [5] 0.036

SLC38A5 (UniProt Q8WUX1)
inactive: [1] -0.016 | [2] 0.006 | [3] 0.011 | [4] -0.096 | [5] -0.083

SLC9A1 (UniProt P19634)
inactive: [1] -0.017 | [2] 0.043 | [3] -0.038 | [4] -0.083 | [5] -0.013

Quoted at random: two records from the list, in no set order.
SLC35A4 (UniProt L0R6Q1)
inactive: [1] -0.042 | [2] -0.01 | [3] 0.063 | [4] -0.049 | [5] -0.084

SLC2A1 (UniProt P11166)
inactive: [1] -0.009 | [2] 0.009 | [3] 0.013 | [4] 0.002 | [5] 0.047

(next part)

SLC35A2 isoform 4 (UniProt P78381)
inactive: [1] -0.023 | [2] -0.013 | [3] -0.009 | [4] -0.049 | [5] -0.037

SLC6A6 (UniProt P31641)
inactive: [1] 0.028 | [2] -0.029 | [3] 0.026 | [4] -0.079 | [5] 0.027

SLC35B3 (UniProt Q9H1N7)
inactive: [1] 0.01 | [2] -0.024 | [3] -0.046 | [4] -0.166 | [5] 0.022

SMAP2 (UniProt Q8WU79)
inactive: [1] 0.02 | [2] -0.002 | [3] 0.029 | [4] 0.049 | [5] 0.02

SLC26A6 (UniProt Q9BXS9)
inactive: [1] -0.053 | [2] 0.067 | [3] 0.011 | [4] -0.556 | [5] -0.096

SLC25A30 (UniProt Q5SVS4)
inactive: [1] 0.023 | [2] 0.044 | [3] -0.045 | [4] -0.13 | [5] -0.006

SLC4A1AP (UniProt Q9BWU0)
inactive: [1] 0.01 | [2] 0.036 | [3] 0.004 | [4] -0.032 | [5] -0.024

SLMAP isoform 3 (UniProt Q14BN4)
inactive: [1] 0.021 | [2] -0.009 | [3] 0.014 | [4] -0.029 | [5] -0.014

SLC39A3 (UniProt Q9BRY0)
inactive: [1] -0.078 | [2] 0.024 | [3] 0.03 | [4] -0.019 | [5] 0.094

SLC25A4 (UniProt P12235)
inactive: [1] -0.002 | [2] 0.031 | [3] -0.033 | [4] 0.048 | [5] 0.028

SLC25A33 (UniProt Q9BSK2)
inactive: [1] -0.022 | [2] 0 | [3] 0.007 | [4] 0.015 | [5] -0.02

SMAP1 isoform 2 (UniProt Q8IYB5)
inactive: [1] 0.019 | [2] 0.002 | [3] 0.097 | [4] -0.015 | [5] -0.066

SLC29A1 isoform 2 (UniProt Q99808)
inactive: [1] 0.068 | [2] -0.06 | [3] 0 | [4] -0.011 | [5] -0.164

SLC25A32 (UniProt Q9H2D1)
inactive: [1] 0.032 | [2] 0.014 | [3] 0.016 | [4] -0.053 | [5] -0.06

Reference: the supplement of paper PMC10849652
